Consider 42 sequences from paper PMC7819943, “Rice protein-binding microarrays: a tool to detect cis-acting elements near promoter regions in rice”.

Protein sequences, listed by entry. Tags and fused reporters are not part of them.
UniProt Q0JBA9, entry or part of it: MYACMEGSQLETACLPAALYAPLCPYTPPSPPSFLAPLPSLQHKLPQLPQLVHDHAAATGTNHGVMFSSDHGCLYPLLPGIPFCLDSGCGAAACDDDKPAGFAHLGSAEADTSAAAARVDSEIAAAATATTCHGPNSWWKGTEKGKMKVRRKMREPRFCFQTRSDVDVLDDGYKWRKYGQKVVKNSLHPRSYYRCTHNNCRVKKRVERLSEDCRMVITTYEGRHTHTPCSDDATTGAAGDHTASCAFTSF

Some of the results follow.

The test has as its target OsWRKY34 (Oryza sativa, UniProt Q0JBA9 1-250). As to the kind of experiment: protein-binding microarray (RPBM); PBS, 2% BSA, 51.3 ng/ul salmon testes DNA, 50 uM zinc acetate, 200 nM TF, 25 C, 1 h; high values mean tight binding. The settings on record: protein: recombinant; tags: N-terminal polyhistidine and DsRed monomer fusion (pET32a); label: CyDye5-dUTP incorporated in the synthesized complementary strand; 3' TTTTT single-stranded linker to array surface; dsDNA, one strand shown. The method in brief: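 Transcription factors were made in E. coli BL21-CodonPlus as N-terminal fusions to a polyhistidine tag and DsRed, then purified on Ni–NTA. After primer extension with Cy5-dUTP and blocking with 2% BSA, a custom Agilent array was exposed for 1 h at 25 °C to 200 nM protein in PBS, 2% BSA, salmon testes DNA and 50 µM zinc acetate. Washed arrays were scanned on an Axon 4000B, and the binding signal is per-feature fluorescence intensity in arbitrary units.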
On to “GGGGTTAAAATGGACTTTATCGTTTACAAATGATCTGAATCGGAGTCACCTAGTGCAG”, for which the binding signal is 8770 fluorescence intensity (a.u.).

“GCCAAGGCCTTACTGCTGCTTCTGTTTCTTGCCACCAATGCGGAGTCACCTAGTGCAG”: the binding signal was 9650 fluorescence intensity (a.u.).

“CCCTCACTTTCACTCCACACACACACTTCACGGTTCGCGCCGGAGTCACCTAGTGCAG”: the binding signal was 8490 fluorescence intensity (a.u.).

As for “GCTTCACCCTTATGTGCCACCGCCGCCGCACCACGCGCTCCGGAGTCACCTAGTGCAG”, the binding signal was 8170 fluorescence intensity (a.u.).

On to “ATGGTCATTTTCTGGGTTAATATGTTGCTGAATGGTAATTCGGAGTCACCTAGTGCAG”, for which the binding signal is 12600 fluorescence intensity (a.u.).

Turning to “CCCCTGGATCCAATCTGCACCGTCCATTCGCACGCAATCCCGGAGTCACCTAGTGCAG”, the binding signal is 9360 fluorescence intensity (a.u.).

On to “AGACGTGGCTGCATCTCTCCCTCTCTCTCGCGTTCCATTGCGGAGTCACCTAGTGCAG”, for which the binding signal is 8670 fluorescence intensity (a.u.).

Turning to “TCCCAAGCCTGCAGCCCCTAAGGACATTCCGCCTGTGAGCCGGAGTCACCTAGTGCAG”, the binding signal is 9720 fluorescence intensity (a.u.).

With “TTCGTCTCGCAATTTACACGCAAACTGTGTAGTTAGTTTTCGGAGTCACCTAGTGCAG”, the binding signal was 8070 fluorescence intensity (a.u.).

Consider “TACTGTTGTGGGGATGCTCATATGCTGCTCTTAGGCAAATCGGAGTCACCTAGTGCAG”, for which the binding signal is 8890 fluorescence intensity (a.u.).

For the sequence “GCCCGGCTCCAATTATCCATGACCGTCTCGTTCTCCTTTCCGGAGTCACCTAGTGCAG”, the binding signal was 9460 fluorescence intensity (a.u.).

On to “GCGTTCCATCTGATATGTGCATTTCTATCATATTATTGTACGGAGTCACCTAGTGCAG”, for which the binding signal was 8960 fluorescence intensity (a.u.).

For “GAAACAATATTATTCCTCTGTCAAGCCTTTTCGACGAGCTCGGAGTCACCTAGTGCAG”, the binding signal is 9900 fluorescence intensity (a.u.).

As for “TTTTTTTTCTCCCATTATTTTTTTTTTCTCACGATTTTTTCGGAGTCACCTAGTGCAG”, the binding signal is 9130 fluorescence intensity (a.u.).

Take “GTTAACCATTTTCACTTTAATTTGTCCTTTCGATTGCAACCGGAGTCACCTAGTGCAG”: the binding signal is 9080 fluorescence intensity (a.u.).

As for “ATGGTTCTATTAATTAATTACTCCCTCCGTTTCATAATGTCGGAGTCACCTAGTGCAG”, the binding signal was 11000 fluorescence intensity (a.u.).

Consider “GCCCCAGATATGCTATCAATCTTTCTTGCACCATCATCCTCGGAGTCACCTAGTGCAG”, for which the binding signal is 10100 fluorescence intensity (a.u.).

In the case of “TCCGTATCCCACACGGCCCATCAAATCTCATTGTTGCTTACGGAGTCACCTAGTGCAG”, the binding signal was 9930 fluorescence intensity (a.u.).

Turning to “TTAGTTACTGCACACAATATTCCTGTGTTTAAGCTTACCTCGGAGTCACCTAGTGCAG”, the binding signal is 11000 fluorescence intensity (a.u.).

As for “ATGTCCGTACACGCGTTCTCGATCATTCTCGCGCGCCACCCGGAGTCACCTAGTGCAG”, the binding signal was 13000 fluorescence intensity (a.u.).

As to “GGCCCACCACCCGACAACCACTCCCACTCACACGCACGCGCGGAGTCACCTAGTGCAG”, the binding signal was 8070 fluorescence intensity (a.u.).

For the sequence “TCGACTGATTGCTTCTTACACACCGCAACTCGCTCTAATTCGGAGTCACCTAGTGCAG”, the binding signal was 12700 fluorescence intensity (a.u.).

In the case of “ACCACCTACATCCACAGTACAGACAGGCAGAGCTAAGCTACGGAGTCACCTAGTGCAG”, the binding signal is 9650 fluorescence intensity (a.u.).

With “CCCATCACCACTCTGCCCACATCCCGGCGTCGCTTCGTGTCGGAGTCACCTAGTGCAG”, the binding signal is 9120 fluorescence intensity (a.u.).

With “CACCCTATTCCTCCTCGCATTCCCCGTTCGCGCCGCCGGACGGAGTCACCTAGTGCAG”, the binding signal was 8240 fluorescence intensity (a.u.).

“TCACCGGGCGGTCACCGGAGGCGGAGGCGGAGGGAGGGGCCGGAGTCACCTAGTGCAG”: the binding signal is 10200 fluorescence intensity (a.u.).

In the case of “TTTTTTCTGCCTTTTGTACTCCTAATACATACTTTCACAGCGGAGTCACCTAGTGCAG”, the binding signal was 10800 fluorescence intensity (a.u.).

Consider “TTACCATTTCCGGGTCTACCGTTCCGATTTCGTTTTCAAGCGGAGTCACCTAGTGCAG”, for which the binding signal is 8500 fluorescence intensity (a.u.).

In the case of “AGTTCAGCTAATCTCCATTATTTCTTCCGCTTTGGTTTGACGGAGTCACCTAGTGCAG”, the binding signal is 12900 fluorescence intensity (a.u.).

With “CAATATATGCTGTTCTTGTGCTTGTGCACCATCGTCGTCGCGGAGTCACCTAGTGCAG”, the binding signal was 10600 fluorescence intensity (a.u.).

For the sequence “GGTGGGGAGGTCACCGGGGCGAGGCGGGAGAGGAGATCCGCGGAGTCACCTAGTGCAG”, the binding signal was 9630 fluorescence intensity (a.u.).

On to “CCACCCGCTCGCCCGTCCGTTCGATTCGACGACACCTTCACGGAGTCACCTAGTGCAG”, for which the binding signal was 10900 fluorescence intensity (a.u.).

In the case of “GTCCCTCGTGGGCCCACTCCGCCGCTCTCCTCTCCGTCAACGGAGTCACCTAGTGCAG”, the binding signal is 8590 fluorescence intensity (a.u.).

Regarding “AGCCTATATTTTACACATTTTATTTTCCCTCTTTTCTCCTCGGAGTCACCTAGTGCAG”, the binding signal is 9520 fluorescence intensity (a.u.).

For “TCCTCGTCATCCTCATCCTCCTCCTCTAACTCGCCCAAGCCGGAGTCACCTAGTGCAG”, the binding signal was 8040 fluorescence intensity (a.u.).

Take “CCACCGTCGTCGGCTCTGTGACCATCGCCGTTTCTTCGACCGGAGTCACCTAGTGCAG”: the binding signal was 8970 fluorescence intensity (a.u.).

With “GGTTTGACTCTATTTTTCCTTTAGTATGGTGTCTGCTCTCCGGAGTCACCTAGTGCAG”, the binding signal was 8280 fluorescence intensity (a.u.).

“TGGTTGTGTTTAGTTTCAGAATTTTTCTTCAAACTTCTAACGGAGTCACCTAGTGCAG”: the binding signal is 9220 fluorescence intensity (a.u.).

With “ACCCTTTTTTTTCGCATGATAGCTACATACAACTTATATACGGAGTCACCTAGTGCAG”, the binding signal was 8580 fluorescence intensity (a.u.).

On to “GCCACTGCCCTGCTGCCTCACCTCAACCTCTCATTGCCGTCGGAGTCACCTAGTGCAG”, for which the binding signal is 12000 fluorescence intensity (a.u.).

“AATATGGTTCTCTAGGTATCTTTTTAATGATGGTAAAATTCGGAGTCACCTAGTGCAG”: the binding signal was 8720 fluorescence intensity (a.u.).

Consider “GGCCCAATACCACATGTGACATCTCAGCCCACTAGGCCCACGGAGTCACCTAGTGCAG”, for which the binding signal is 8420 fluorescence intensity (a.u.).
